The supplement of paper PMC5949888
Most values lie at the floor of the assay. Slopes are relative: functional sequences can read slightly below zero.

These substances were tested on Saccharomyces cerevisiae PS128 hsf1 delta, HSF1(1-493) fusion (assay: growth estimate (transactivation domain function in HSF1 fusion, heat-shock survival) (a.u. (slope of normalised read count over time)); higher = stronger growth at 37°C, i.e. more transactivation activity). Conditions: library: random library.

Substance | growth estimate
RVLPGGSVTCN | < -0.25
EIRICSAL | < -0.25
AIKYKTRDRNLLKPPGSHLT | < -0.25
LLVASDLGDLARVEDTQSTD | < -0.25
ELR | -0.246
RPNCTLWARRCPRYSPPGKS | -0.246
KPTGVRTLPLLRADVPERQT | < -0.25
RITAHRLC | < -0.25
AITGKYPLRKHP | < -0.25
PTAHRFGPAVGSHATVHSVV | < -0.25
YDPSKA | < -0.25
NVQDTRSTTISEVDSTPPPP | < -0.25
VSILADKFGERLCGVLPGIT | < -0.25
KCD | < -0.25
VNSRKAGGEFPLLA | < -0.25
TGASRAALSACKSCSTGPTM | < -0.25
ASYDLVM | < -0.25
PEI | < -0.25
LYVRRVLYCKS | < -0.25
TWFEGS | < -0.25
KLLPKRSRPGAPVVGHTLRF | < -0.25
HTKE | < -0.25
VSFVSGLCGRVGTVC | < -0.25
LDWDCGRTVGRLGPPSSDLS | < -0.25
LAARVPAGVYVEDQHTFKKG | < -0.25

Substance | growth estimate
VHTKFAKVRAGKVQSRTWTR | -0.241
GVGRF | < -0.25
VVSIYKRPGVIARMSYYDL | < -0.25
GVEPQTPAARA | < -0.25
VRCPRTPIDEFRLGAA | < -0.25
RRRKYHNNLIPPMRFNYSSA | -0.213
LTYGTRTPVLQAVR | < -0.25
WLHRVRTQIF | < -0.25
LGSKRNSLGSPGSMRSFVSL | < -0.25
KSGSDPYVTCAAYAWETFFV | < -0.25
TILIGDTCQVGNRISPAGFV | < -0.25
AITKNFGGFITCRYWSLRRL | < -0.25
SMRSYGLTAHS | < -0.25
LRFVNNSGLPEPFYSTTPVQ | < -0.25
QCDC | < -0.25
TSGHGEQTVVAVANIMI | < -0.25
LVVTQVLV | < -0.25
GFAGGPLHAGPSSHWGYGLV | < -0.25
SVAPTSPLTAPQ | < -0.25
AKALRPKMIPYERDRKLLSA | < -0.25
LLSALGRSYRLVENLAR | < -0.25
LSTGCEEVQTERARNHNAAR | < -0.25
NFPDCRLIAIMRLSTVGGHS | < -0.25
GVFIHTSAAIMGGYGRERIL | < -0.25
DSCGWNLGISSRALRHEWTP | < -0.25

Substance | growth estimate
GSFRVHQ | -0.246
LLNGVFGLNAASQ | < -0.25
LQTQVILLVRMF | < -0.25
AHETATAGNRELSRDYN | < -0.25
NSHRRRRRTGDRRTGVLGSS | < -0.25
SNVGRVYGSALRMIPEVWQT | < -0.25
LSRVSTKKLRLNVMCTDGRD | < -0.25
DCF | < -0.25
CLWYQY | 3.05
TCQPADKITG | < -0.25
SAWWGPANIGKA | -0.243
VIRCR | < -0.25
SGHLTPDTWGLTPPCYNKHG | < -0.25
TWNVGHVGFCVCDRCRPICD | < -0.25
LTQKWAKRGWLLRHGQSTYR | < -0.25
LHTV | < -0.25
RDLAVQSCDAIIQWSIAPRG | < -0.25
QVYRRI | < -0.25
FSSA | < -0.25
GPRPRGGLCWKARIRLCSMP | < -0.25
ELPYN | < -0.25
LPHLTRPSPKGGIV | < -0.25
LGTG | -0.231
VLGAR | < -0.25
FLVPWGSSQVGVQSAIAQVG | < -0.25

Substance | growth estimate
LGCVMPANFRDSTPCFIDLT | < -0.25
RALIGYGRSHHQYVLQYSCP | < -0.25
LVVNGYVRCRTRSSLRIKSS | < -0.25
QLTVSSHQGLPVRVSENVAQ | < -0.25
KFIHAHRIAC | < -0.25
GLIVGYGAEVYSSTLVANGA | < -0.25
RIPVSNRGVFTVNACTKPS | < -0.25
TRELSV | < -0.25
RRCT | < -0.25
LGWHRGANSSCGWGIGPLY | < -0.25
EPPPVRDAQGRRQYT | < -0.25
RYAQEIDKGT | < -0.25
IPQRLIQGCNFSLTSVRSHT | < -0.25
GIHVQCLGDQCVITHDSQNF | < -0.25
QSGNWG | < -0.25
QKR | < -0.25
WIRYELGSKVGQPGKRATSG | < -0.25
NPEVVGLGQEAERVAPSPWP | < -0.25
RPVWYPRSATHRCGTACPVN | < -0.25
CTSTKQKNWTSSNRSRGLGL | < -0.25
SLRHVNPLGGVLGH | -0.248
RIRERPTV | < -0.25
IWLRKRCPHLRLPTGVPLQV | < -0.25
LGQSGSRKW | -0.248
REAPRLAQPSYYGGIRFRQP | < -0.25

Substance | growth estimate
GKSVRIKDLPASAATLQRSS | < -0.25
ESIPLEEMVGDLY | < -0.25
ETPATLNMS | -0.243
ISLSKGHE | < -0.25
FESGDVQD | < -0.25
RSTGLLFEGLHIAQPMANEI | < -0.25
FPCAFIRSVCKGSQVGCILE | < -0.25
VSHLRLITYDS | < -0.25
PRCAYDRRSYLSRYGRE | < -0.25
VVKLECPDLTGVTPNQSLQE | -0.246
KMVWFGVIVSEVTS | < -0.25
NMS | < -0.25
SVLAESAWGTTYGCHSSWSN | < -0.25
GHSLFRGGLPLMWKTTRGIC | < -0.25
VGARQTSLVRYPTSSLRIGR | < -0.25
EEPLVRSTARI | < -0.25
NREGWQHSVLGVATLQGYRH | < -0.25
RKA | < -0.25
KVAEGVSRRRRTPATSAAVS | < -0.25
RRCS | < -0.25
CQAGKITCVTDIGQLFCGKN | < -0.25
RWRYQHGL | < -0.25
PTPGLLVT | < -0.25
GHNQVSS | < -0.25
TGTCEGCAPRVLKAQSNHLE | < -0.25

Substance | growth estimate
SMYASLR | < -0.25
CSASLWANPSLVDTRLISDV | < -0.25
YGCEAS | < -0.25
SYLQIFAGQHPTIIAM | < -0.25
PVT | < -0.25
LRRLEGTVLPTRNFSRHL | < -0.25
RASCIVPPC | < -0.25
DRQ | < -0.25
LALCGKRLWRNIRAPCDGSI | 0.0091
GWAHTFDEV | < -0.25
SIHPAEIELTSTAS | < -0.25
NGGSSTAS | < -0.25
HIKV | -0.246
EKFRIETVGGSQRFALFPAD | < -0.25
VGEIKSTRLPRVQ | < -0.25
AILFKTADSKPSVSPKCYRP | < -0.25
LAWPPVLTPPSSRDALQPVW | < -0.25
YVPMTHHGLGASVRKGKRYA | -0.246
YNHLMHTPAPRVPVDGSPKG | < -0.25
VRRV | < -0.25
NPLLNLTASPLVQHPLQIV | < -0.25
HEDGPNANEPGQESAPTRLI | -0.231
VMWKSPSIPRRSNRRRTNDS | < -0.25
FPPYCTVAIDSGASTSICSM | < -0.25
VKLPARSSNGLVQLH | < -0.25

Substance | growth estimate
ASDHALGAQKGRDIMNYAKH | < -0.25
ACCESYGGSS | < -0.25
VTLGTGHKWQCLLPSPTGIT | < -0.25
GVGV | < -0.25
PTRRSSVLQIVCGHVFFRVA | < -0.25
LKDYSRPCLGSQQFLDFRLV | < -0.25
LVANP | < -0.25
LSSGGLCQRGAVTGRAARAA | < -0.25
RGGDLLQKFVTSRREVSDCD | < -0.25
VMLGWVVAQFGCTNRKSAT | < -0.25
RYFPAVD | < -0.25
NGGLRCMRSLAGINDNLINN | < -0.25
QEMHS | < -0.25
SALSYPSTSSR | < -0.25
LVHQSV | < -0.25
GGTYPEGGIESHLSRT | < -0.25
ITGLLNWNGRGVYMRRSRPC | -0.229
LCGSWVVRGRTVSCVSRSFR | < -0.25
LTRRYCKSLLRPPRLLTLVS | < -0.25
GQRRRSHRGGIKSRESCSHS | < -0.25
QALPVR | < -0.25
KIRGLSRTGWAAGRSFTNRW | < -0.25
RSSGDVGPGSHGVR | < -0.25
TSRPLASAN | < -0.25
RLTRGDDIGSFSRDVCKMWR | < -0.25

Substance | growth estimate
ADLNVECCAATNTVTYTYLA | < -0.25
ATVVDPYGAWISHGITFSVG | < -0.25
RCETWSHSGSCLGRS | < -0.25
VCTFINQCNLQMTVRRKKTT | < -0.25
IGEGLISTGSID | < -0.25
IYPSP | < -0.25
VCWIHDD | < -0.25
LME | < -0.25
RGFIYVRSRSTSGTLRLGVR | < -0.25
QMGRPTGGPRVECLTRI | < -0.25
TFAGRSPVAVYCSSCRSTLP | < -0.25
TLTNFSTMHHYFGAVRSPPR | < -0.25
QEKGVLTKVSEWHGGAKVHQ | < -0.25
RLLLQLAGLRSESTSTI | < -0.25
AVW | < -0.25
HTVLGA | < -0.25
LTFYVSDTFNGV | < -0.25
LDDVPDFQMSGSSGTHCIDT | < -0.25
SLRILAPLPEIS | < -0.25
GGHLDLRRKITQTGQ | < -0.25
GEREDGQWVSCSTRLNNAHR | < -0.25
AFFSAVFIGSVSTVMFIKDR | -0.0144
ISDTARTKHCRYHPVVTTDR | < -0.25
DWCRRSSRSVSPGSWDT | < -0.25
EMSPIRSAMRGR | < -0.25
